Test results published in PMC4863586.
Results are given in words; binding and its absence hold for the method and conditions named. In cells and extracts the contact can be indirect.

Target: ROP54 with C-terminal 2×Strep 3×Flag epitope tag (ROP54SFII) (Toxoplasma gondii (type II, Pru∆ku80))
Assay: co-IP; ROP54SFII parasite lysate (0.5% NP-40, 150 mM NaCl, protease inhibitors) on Strep-Tactin beads 4 h at room temperature, eluted with 10 mM desthiobiotin; 10% of the eluate probed by Western blot for known ROP kinases and pseudokinases; untagged Pru∆ku80 as control

B1: ROP4 (protein, UniProt Q5Y808 34-578)
chain: RQRPHQWKSSEAALSVSPAGDIVDKYSRDSTEGENTVSEGEAEGSRGGSWLEQEGVELRSPSQDSQTGTSTASPTGFRRLLRRLRFWRRGSTRGSDDAAEVSRRTRVPLHTRLLQHLRRVARIIRHGVSAAAGRLFGRVRQVEAERPQPVFTEGDPPDLETNSLYYRDKVPGQGIIQEILRQKPGIAHHPESFSVVAADERVSRTLWAEGGVVRVASELGQPGRVLVRGRRIGLFRPGMQFEATDQATGEPMTALVGHTVLEATARDVDSMRNEGLAVGLFQKVKNPYLANRYLRFLAPFDLVTIPGKPLVQKAKSRNEVGWVKNLLFLLPPTHVDMETFVDEIGRFPQEDRPLADAARLYLTVQAVRLVAHLQDEGVVHGKIMPDSFCLKREGGLYLRDFGSLVRAGAKVVVPAEYDEYTPPEGRAAARSRFGSGATTMTYAFDAWTLGSVIFLIWCSRAPDTKSGYEYSVEFFFSRCRRVPENVKLLVYKLINPSVEARLLALQAIETPEYREMEEQLSAASRLYSGDGTLTGGDDDMPPLET
In the case of B1, the binding is reported as “no binding”.
